These results are taken from publication PMC10940622.

Protein sequences, listed by entry. Tags and fused reporters are not part of them. Residues count along the entry.
UniProt Q9NXA8, residues 37-310: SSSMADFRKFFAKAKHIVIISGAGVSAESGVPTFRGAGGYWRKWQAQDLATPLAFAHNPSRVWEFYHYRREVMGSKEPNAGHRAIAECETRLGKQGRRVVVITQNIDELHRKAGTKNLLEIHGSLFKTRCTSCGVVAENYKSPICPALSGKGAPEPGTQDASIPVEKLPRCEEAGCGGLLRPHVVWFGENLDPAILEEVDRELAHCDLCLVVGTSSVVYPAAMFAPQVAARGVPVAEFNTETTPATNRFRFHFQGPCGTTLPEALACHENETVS
UniProt P49773: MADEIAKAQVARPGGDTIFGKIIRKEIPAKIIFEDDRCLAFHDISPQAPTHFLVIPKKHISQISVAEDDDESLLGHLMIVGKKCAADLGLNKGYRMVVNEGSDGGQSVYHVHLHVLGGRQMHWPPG

These are yes or no findings as the source states them, for the method shown. Binding seen in cells or lysates may run through a third protein. Some entries that bind do so weakly or less than the wild type.

The target of this experiment is Flag-SIRT5, ectopically expressed in 293T cells (UniProt Q9NXA8). Briefly: co-IP; 293T cells expressing Flag-SIRT5 and GFP-HINT1, 1% NP-40 lysate; precipitated with anti-Flag beads (Flag Fab-Trap agarose) overnight at 4 °C; immunoblot. For orientation: A western blot detects proteins with antibodies after separation by electrophoresis.

“GFP-HINT1, ectopically expressed in 293T cells (from UniProt P49773 1-126)”: the binding entry was “binds”.
